This passage reports binding results from patent publication US20210079087A1 (REMD BIOTHERAPEUTICS, published 2021).

Amino acid sequences for entries named in this document (tags omitted). A change or cut given only in a name is not applied to a line headed by its entry.
UniProt Q16552: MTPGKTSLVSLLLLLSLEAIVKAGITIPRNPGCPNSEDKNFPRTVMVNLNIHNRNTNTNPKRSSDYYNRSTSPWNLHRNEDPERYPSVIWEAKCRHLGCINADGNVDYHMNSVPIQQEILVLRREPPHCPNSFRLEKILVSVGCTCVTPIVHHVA

The target of assay [1] is cyno primate IL-17A (cyno primate). Kind of assay: ELISA. (In an ELISA, binding on a coated surface is turned into a signal by an enzyme label.)
The target is the same in assay [2]. Briefly: ELISA on coated cyno IL-17A ('cy IL17A 122116 (naked IL17A 1 ug/ml)'), OD450.
Assay [3] has as its target T1, human IL-17A (human, UniProt Q16552 24-155). Kind of assay: ELISA, binding to human IL-17A (upper panel 'IL17A EC50', normalised IL17 Binding).
Assay [4] deals with T1, human IL-17A. Kind of assay: ELISA.
The target of assay [5] is T1, human IL-17A. Kind of assay: blocking ELISA, IL-17A/IL-17R (lower panel 'IL17A/IL17R IC50', normalised IL17A Binding); blocked partner: IL-17R.

These are yes or no findings as the source states them, for the method shown. Some binding calls cover weakened binding; strength is not graded here.

B1: 22E2G4 (antibody, mouse IgG1, V domains shown)
VH: QVQLQQPGAELVMPGTSVRLSCKASGYTFTSYWMHWVKQRPGQGLEWIGEIDPSDTYTNYNPKFKGKATLTVDKSSSTAYMQFTSLTSEDSAVYYCARSGIYYDYYEDYWGQGTTLTVSS
VL: DVVMTQTPLSLPVSLGDQASISCRSSQILLHSNGNTYLHWYLQKPGQSPKLLIYKVSNRFSGVPDRFSGSGSGTDFTLKISRVEAEDLGVYFCSQSVHVPTFGGGTKLEIK
notes: amino acids 1-19 are stated as the leader; also called A3
Consider B1, for which the binding result in assay [1] and in assay [2] was “binds” in each case.

B2: 24F11E4 (antibody, mouse IgG1, V domains shown)
VH: QVQLQQPGAELVMPGASVRLSCKASGYTFTNYWIHWVKQRPGQGLEWIGEIDPSDTFTNYSPKFKGKATLTVDKSSSTAYMQLTGLTSEDSAVYFCARSGIYYDYYEDYWGQGTTLTVSS
VL: DVVMTQTPLSLPVSLGDQVSISCRSSQILLHSNGNTYLHWYLQKPGQSPKLLIYKVSNRFSGVPDRFSGSGSGTDFTLKISRVEADDLGVYFCSQSVHVPTFGGGTKLEIK
notes: amino acids 1-19 are stated as the leader; also called A5
B2: the binding result in assay [1] and in assay [2] was “binds” each time.

B3: 26G11B11 (antibody, mouse IgG1, V domains shown)
VH: QVQLQQPGAELVMPGASVKLSCKAAGYTFTSYWMHWVKQRPGQGLEWIGEIDPSDSYTNYNQKFKGKATLTVDKSSSTAYMQLSSLTSEDSAVYYCARSGIYYDYYEDYWGQGTTLTVSS
VL: DVVMTQTPLSLPVSLGDQASISCRSSQSLVHSNGNTYLHWYLQKPGQSPKLLIYKVSNRFSGVPDRFSGSGSGTDFTLKISRVEAEDLGVYFCSQSIHVPTFGGGTKLEIK
notes: amino acids 1-19 are stated as the leader; also called A6
As to B3, the binding entry in assay [1] and in assay [2] was “binds” in each case.

B4: 23A4D8 (antibody, mouse IgG2a, V domains shown)
VH: EVQLQQSGPELVKPGASVKISCKASGFTFTDYYMNWMKQSHGKSLEWIGDINPKNGGTIFNQNFRGKATLTVDKSSSTAYMELRSLTSEDSAVYYCARSILTGPFYFDYWGQGTTLTVSS
VL: DIVLTQSPASLAVSLGQRAIISCKASQSVSFAGTGLMHWYQQKSGQQPKLLISRASNLEAGVPTRFSGSGSRTDFTLNIHPVEEDDAATYYCQQTMEYPTFGGGTKLEIK
notes: also called Murine 23A4D8; parental
As to B4, the binding entry (with human IL-17A [3]; in the assay with human IL-17A [4]; in assay [1]; with human IL-17A [5]; in assay [2]) was “binds” in each case.

B5: 4H11C7 (antibody, mouse IgG1, V domains shown)
VH: QVTLKESGPGILQPSQTLSLTCSFSGFSLNTFGMGVDWIRQPSGKGLEWLAHIWWDDDKYYNPALESRLTISKDASKNQVFLKIANVDTADTATYYCSRRELGPYFFDYWGQGTTLTVSS
VL: GVLMTQTPLSLPVSLGDQASISCRSSQSIVHSNGNTYLEWYLQKPGQSPKLLIYKVSNRFSGVPDRFSGSGSGTDFTLKINRVEAEDLGVYYCFQGSHFPYTFGGGTKLEID
notes: amino acids 1-19 are stated as the leader; also called A1
As for B5, the binding result in assay [1] and in assay [2] was “binds” each time.
